Data as given in US11046673B1, “Tetrazolinone compounds and its use” (SUMITOMO CHEMICAL COMPANY, LIMITED, priority 2016, dated 2021).
Some results were stated once for a whole list of compounds, not compound by compound. For at least one compound, name, drawing or mass did not settle the structure.

Assays:
Format in all cases: in vivo
[1] = system: wheat leaf blotch fungi (Septoria tritici); assay: Test Example 4: wheat leaf blotch, foliar spray; settings: wheat (cv Apogee), 500 ppm foliar spray, inoculated after 4 days
[2] = system: cucumber downy mildew fungi (Pseudoperonospora cubensis); assay: Test Example 9: cucumber downy mildew, foliar spray; settings: cucumber (cv Sagamihanjiro), 50 ppm foliar spray, inoculated after 1 day
[3] = system: barley leaf blotch fungi (Rhynchosporium secalis); assay: Test Example 7: barley leaf blotch, foliar spray; settings: barley (cv Nishinohoshi), 200 ppm foliar spray, inoculated after 1 day
[4] = system: kidney bean sclerotinia rot fungi (Sclerotinia sclerotiorum); assay: Test Example 3: kidney bean sclerotinia rot, foliar spray; settings: kidney bean (cv Nagauzurasaitou), 500 ppm foliar spray, observed after 4 days
[5] = system: cucumber sclerotinia rot fungi (Sclerotinia sclerotiorum); assay: Test Example 11: cucumber sclerotinia rot, root immersion; settings: cucumber (cv Sagamihanjiro), roots immersed in 0.25 mg/L, inoculated after 8 days
[6] = system: soybean rust fungi (Phakopsora pachyrhizi); assay: Test Example 6: soybean rust, foliar spray; settings: soybean (cv Kurosengoku), 200 ppm foliar spray, inoculated after 4 days
[7] = system: soybean frogeye leaf spot (Cercospora sojina); assay: Test Example 10: soybean frogeye leaf spot, foliar spray after inoculation; settings: soybean (cv Tachinagaha), 200 ppm foliar spray after inoculation (curative)
[8] = system: cucumber anthracnose fungi (Colletotrichum lagenarium); assay: Test Example 8: cucumber anthracnose, foliar spray; settings: cucumber (cv Sagamihanjiro), 200 ppm foliar spray, inoculated after 1 day

Measured: lesion area compared to the lesion area in untreated plants

COCn1nc(-c2cc(C)c(OCc3ccccc3-n3nnn(C)c3=O)cc2C)cc1C [compound 16]
not listed: [7] | [8]
≤ 10%: all other assays above

COCCn1nc(-c2ccc(OCc3c(C)cccc3-n3nnn(C)c3=O)c(C)c2)cc1C [compound 11]
≤ 10%: [1] | [3] | [4] | [6]

CCOCn1nc(-c2ccc(OCc3c(C)cccc3-n3nnn(C)c3=O)c(C)c2)cc1C [compound 7]
≤ 10%: [7] | [1] | [3] | [4] | [6]

CCOCn1cc(C)c(-c2ccc(OCc3c(C)cccc3-n3nnn(C)c3=O)c(C)c2)n1 [compound 8]
≤ 10%: [1] | [3] | [4] | [6]

COCCn1nc(-c2cc(C)c(OCc3c(C)cccc3-n3nnn(C)c3=O)cc2C)cc1C [compound 13]
not listed: [5] | [7]
≤ 10%: all other assays above

COCCn1ccc(-c2ccc(OCc3c(C)cccc3-n3nnn(C)c3=O)c(C)c2)n1 [compound 10]
not listed: [7]
≤ 10%: all other assays above

CCOCn1ccc(-c2ccc(OCc3c(C)cccc3-n3nnn(C)c3=O)c(C)c2)n1 [compound 6]
not listed: [7]
≤ 10%: all other assays above

COCCn1nc(-c2ccc(OCc3c(C)cccc3-n3nnn(C)c3=O)c(C)c2)cc1Cl [compound 20]
≤ 10%: [7] | [1] | [3] | [4] | [6]

CCOCCn1ccc(-c2ccc(OCc3c(C)cccc3-n3nnn(C)c3=O)c(C)c2)n1 [compound 14]
not listed: [7]
≤ 10%: all other assays above

CCOCn1nc(-c2ccc(OCc3c(C)cccc3-n3nnn(C)c3=O)c(C)c2)c(Cl)c1C [compound 26]
≤ 10%: [1] | [3] | [4] | [6]

CCOCn1nc(-c2ccc(OCc3c(C)cccc3-n3nnn(C)c3=O)c(C)c2)cc1F [compound 24]
≤ 10%: [6]

COCn1nc(-c2ccc(OCc3c(C)cccc3-n3nnn(C)c3=O)c(C)c2)cc1Cl [compound 18]
≤ 10%: [3] | [6]

COCCn1cc(C)c(-c2ccc(OCc3c(C)cccc3-n3nnn(C)c3=O)c(C)c2)n1 [compound 12]
≤ 10%: [1] | [3] | [4] | [6]

COCn1nc(-c2cc(C)c(OCc3c(C)cccc3-n3nnn(C)c3=O)cc2C)cc1C [compound 5]
not listed: [5] | [8]
≤ 10%: all other assays above

CCOCn1nc(-c2ccc(OCc3c(C)cccc3-n3nnn(C)c3=O)c(C)c2)cc1Cl [compound 19]
≤ 10%: [3] | [4] | [6]

CCOCn1nc(-c2cc(C)c(OCc3ccccc3-n3nnn(C)c3=O)cc2C)cc1C [compound 17]
≤ 10%: [1] | [2] | [3] | [4] | [6]

CCOCn1nc(-c2ccc(OCc3c(C)cccc3-n3nnn(C)c3=O)c(C)c2)c(C)c1F [compound 22]
≤ 10%: [1] | [3] | [4]

COCn1ccc(-c2cc(C)c(OCc3c(C)cccc3-n3nnn(C)c3=O)cc2C)n1 [compound 4]
≤ 10%: [7] | [1] | [2] | [3] | [4]

COCn1nc(-c2ccc(OCc3c(C)cccc3-n3nnn(C)c3=O)c(C)c2)cc1F [compound 23]
≤ 10%: [3] | [6]

COCn1nc(-c2ccc(OCc3c(C)cccc3-n3nnn(C)c3=O)c(C)c2)c(C)c1F [compound 21]
≤ 10%: [1] | [3] | [4] | [6]

CCOCCn1nc(-c2cc(C)c(OCc3c(C)cccc3-n3nnn(C)c3=O)cc2C)cc1C [compound 15]
≤ 10%: [1] | [3] | [4] | [6] | [8]

COCn1cc(C)c(-c2ccc(OCc3c(C)cccc3-n3nnn(C)c3=O)c(C)c2)n1 [compound 3]
not listed: [2] | [8]
≤ 10%: all other assays above

COCn1nc(-c2ccc(OCc3c(C)cccc3-n3nnn(C)c3=O)c(C)c2)cc1C [compound 2]
≤ 10%: [1] | [3] | [4] | [6]
